Results taken from PubChem BioAssay AID493014 (National Center for Advancing Translational Sciences (NCATS), 2011).
This is one part of the list. Shown are side measurements of this screen, not its main read-out; they come without a call. The list favours compounds with an active or inconclusive main result. Words in brackets tell the shape of the fitted curve; partial curves, single points and poor fits give uncertain potencies.

Assay: qHTS Assay to Find Inhibitors of Chronic Active B-Cell Receptor Signaling
Conditions: ABC-DLBCL IkBa-CBG/CBR reporter, luminescence ratio (green luciferase fused to IkBa over red control in TMD8 lymphoma cells), 4 h
How it was run: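 Cell line TMD8 (human ABC DLBCL), stably expressing tet-inducible CBG68-IkBa fusion and CBR; IMDM/0.5% FBS; cpd up to 46 uM; dox induction, 4 h, 37C/5% CO2; dual luminescence; green/red ratio; MG132 control.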

[1] = measured here: CBR red luminescence, cell number
[2] = measured here: IkBa-CBG green luminescence

Row | SMILES | AC50 [1] | AC50 [2]
1 | NC(=O)c1cc2ccccc2o/c1=N/NC(=O)c1cccs1 | 35.5 µM [falling, single point] | –
2 | Cc1[nH]nc2cn[nH]c12 | 7.08 µM [falling, full curve, poor fit] | –
3 | Cn1cccc1CC(=O)NNC(=S)Nc1ccc(Cl)cc1Cl | 9.2 µM [rising, partial curve] | –
4 | O=C1C(=O)N(CCN2CCOCC2)C(c2ccccn2)/C1=C(/O)c1ccc(Cl)cc1 (stereo not given) | 0.00461 µM [falling, full curve, poor fit] | –
5 | O=C(Cc1ccccc1)NCc1ccc(F)cc1 | 0.366 µM [rising, partial curve] | –
6 | CN(C)C(CNC(=O)c1cc(S(=O)(=O)N(C)c2ccccc2)ccc1Cl)c1ccccc1 (stereo not given) | 22.4 µM [falling, single point] | 15.8 µM [rising, partial curve, poor fit]
7 | COc1ccc(CCN(Cc2cc3cccc(C)c3[nH]c2=O)C(=O)N2CCCC2)cc1OC | 6.51 µM [rising, single point] | –
8 | O=c1ccccn1Cc1c(F)cccc1Cl | 0.00517 µM [rising, full curve, poor fit] | –
9 | COc1ccc(C(=O)NNC(=S)NC(=O)c2ccc(OC)cc2)cc1 | 35.5 µM [rising, single point] | –
10 | O=[N+]([O-])c1ccccc1-c1cc(-c2ccccc2O)n[nH]1 | 0.092 µM [falling, full curve] | –
11 | COc1ccc(NC(=O)CSCC(=O)N(C)Cc2cccc(OC)c2OC)cc1 | 9.2 µM [rising, partial curve, poor fit] | –
12 | CN(Cc1ccccc1)C(=O)c1nc2ccccn2c1CNCCn1cccn1 | 0.631 µM [falling, single point] | –
13 | O=C(Cn1ccc(C(F)(F)F)n1)N=Nc1c(O)[nH]c2ccc(Br)cc12 | 8.91 µM [falling, partial curve] | –
14 | COc1ccc(C2C(C#N)=C(/N=C/N3CCN(C)CC3)OC3=C2C(=O)CC(C)(C)C3)cc1OC (stereo not given) | 4.61 µM [rising, single point] | –
15 | CC(C)c1ccc(OCC(=O)NCc2ccco2)cc1 | 13 µM [rising, partial curve, poor fit] | –
16 | CC[C@]12c3[nH]c4ccc(OC)cc4c3CCN1C(=O)C(CC(=O)NC/C=C(\C)CCC=C(C)C)C[C@@H]2C(=O)N1CCN(C(=O)c2ccco2)CC1 (stereo not given in full) | 23.1 µM [falling, single point] | –
17 | COc1ccccc1-c1cc(C(=O)NN)[nH]n1 | 11.2 µM [falling, partial curve, poor fit] | 28.2 µM [falling, single point]
18 | Cc1ccccc1NC(=O)/C=C/c1cccs1 | 35.5 µM [falling, single point] | –
19 | COC(=O)c1ccc(Oc2cc(C)nc(SC)n2)cc1 | 20 µM [rising, partial curve] | 22.4 µM [falling, single point]
20 | COc1cc(C(=O)NNC(=S)NC(=O)c2ccc3c(c2)OCO3)cc(OC)c1OC | 35.5 µM [rising, single point] | 28.2 µM [falling, single point]

Single values from the results shown.
COc1ccc(NC(=O)CSCC(=O)N(C)Cc2cccc(OC)c2OC)cc1 | AC50 [1]: 9.2 µM [rising, partial curve, poor fit]
O=[N+]([O-])c1ccccc1-c1cc(-c2ccccc2O)n[nH]1 | AC50 [1]: 0.092 µM [falling, full curve]

Further results

Row | SMILES | AC50 [1] | AC50 [2]
21 | CCCCC(CC)COC(=O)c1ccc(N(C)C)cc1 (stereo not given) | 14.6 µM [rising, partial curve] | –
22 | CCCCn1c(CN2CCOCC2)nc2c1c(=O)n(C)c(=O)n2C | 23.1 µM [falling, single point] | –
23 | Nc1ncnc2c1ncn2[C@@H]1O[C@H](CNC(=O)[C@@H](N)COCc2ccccc2)[C@@H](O)[C@H]1O | 29.1 µM [rising, single point] | 8.2 µM [falling, partial curve, poor fit]
24 | CN(C)CCNC(=O)c1ccc(-c2nn(C)c(=O)c3ccccc23)cc1 | 9.2 µM [rising, partial curve, poor fit] | –
25 | CCOC(=O)CN1C(=O)C(=O)N(Cc2c(Cl)cccc2Cl)C1=O | 35.5 µM [rising, single point] | –
26 | CCOC(=O)c1cn2nc(N3CCCC3)ccc2n1 | 15.8 µM [falling, partial curve] | –
27 | O=C(Nc1ccc2c(c1)OCCO2)c1ccc(Br)cc1 | 10 µM [falling, partial curve, poor fit] | –
28 | COC(=O)N1C(=O)[C@](c2ccsc2)(C(C)C)N1C(=O)OC | 3.16 µM [falling, partial curve] | –
29 | Cc1cc(Br)ccc1OCCN1CC(C)OC(C)C1 (stereo not given) | 35.5 µM [rising, single point] | –
30 | CCCn1c(NC(=O)c2cccc(S(=O)(=O)N3CCCC3)c2)nc2ccccc21 | 7.08 µM [falling, partial curve] | –
31 | Brc1ccc2nc(-c3cccs3)c(NCC3CCCO3)n2c1 (stereo not given) | 10 µM [falling, partial curve, poor fit] | 14.1 µM [rising, partial curve, poor fit]
32 | COc1ccccc1N1C(=O)N(CC(=O)C(C)(C)C)c2ccccc2S1(=O)=O | 31.6 µM [falling, single point] | –
33 | COc1cc(C(=O)N2CCN(S(=O)(=O)c3ccc(F)cc3)CC2)cc(OC)c1OC | 0.651 µM [rising, full curve, poor fit] | –
34 | CC(=O)Nc1ccc(NC(=O)[C@@H](NC(=O)c2ccccc2F)C(C)C)cc1 | 14.1 µM [falling, partial curve, poor fit] | –
35 | CC(=O)Nc1cc(-c2nn(C)c(=O)c3ccccc23)ccc1N1CCOCC1 | 29.1 µM [rising, single point] | –
36 | NC(=O)[C@H]1CC2(CC(c3cccc(NC(=O)COc4ccc(Cl)cc4)c3)=NO2)CN1C(=O)CC(c1ccccc1)c1ccccc1 (stereo not given in full) | 6.31 µM [falling, full curve, poor fit] | –
37 | CC(/C=C/c1ccccc1F)=N\NC(=O)c1ccccc1 | 12.6 µM [falling, partial curve] | –
38 | CC(C)CN(C(=O)COC(=O)c1nc(Cl)ccc1Cl)C1CCS(=O)(=O)C1 (stereo not given) | 11.2 µM [falling, single point] | –
39 | CCN(CC)C(=S)SCC(=O)c1ccc(F)cc1 | – | 35.5 µM [falling, single point]
40 | CCOC(=O)c1c(N=CN(C)C)c2cc([N+](=O)[O-])cnc2n1C | 0.112 µM [falling, full curve, poor fit] | –

One compound at a time, from the list above.
CCOC(=O)c1c(N=CN(C)C)c2cc([N+](=O)[O-])cnc2n1C as listed: AC50 [1]: 0.112 µM [falling, full curve, poor fit]
NC(=O)c1cc2ccccc2o/c1=N/NC(=O)c1cccs1 as listed: AC50 [1]: 35.5 µM [falling, single point]

Next results:

Row | SMILES | AC50 [1] | AC50 [2]
41 | CC(=O)Nc1cccc(Oc2ccc(-c3noc(C)n3)cc2)c1 | 6.51 µM [rising, single point] | –
42 | COc1ccc(S(=O)(=O)N(C)CC(=O)Nc2ccc3c(c2)OCO3)cc1OC | 6.51 µM [falling, single point] | –
43 | Cc1cccc(N2CCN(C(=O)C3CCN(c4ncnc5c4nc4n5CCCCC4)CC3)CC2C)c1 (stereo not given) | 4.47 µM [falling, full curve] | –
44 | CS(=O)(=O)N(CC(=O)N1CCN(c2ccccc2F)CC1)c1cc(C(F)(F)F)ccc1Cl | 6.51 µM [falling, partial curve, poor fit] | –
45 | Cc1sc(NC(=O)c2ccc3ncsc3c2)c(C(N)=O)c1C | 0.13 µM [rising, full curve, poor fit] | –
46 | NS(=O)(=O)c1ccc(CCNCc2cc(Br)ccc2OCc2ccccc2F)cc1 | 20 µM [falling, single point] | –
47 | Cc1ccc(C)c(N2CCN(C(=O)C3CCCN(c4ncnc5c4nc4n5CCCCC4)C3)CC2)c1 (stereo not given) | 15.8 µM [falling, single point] | –
48 | COc1cc(C2C(N3C(=O)c4ccccc4C3=O)C(=O)N2c2ccc(C)c(C)c2)cc(OC)c1OC (stereo not given) | 5.17 µM [rising, full curve, poor fit] | 9.2 µM [falling, partial curve, poor fit]
49 | CCCn1cnc2c(oc3ccccc32)c1=O | 1.41 µM [rising, full curve, poor fit] | –
50 | COc1ccc(C2CC(=O)c3cc(OC)c(OC)cc32)cc1OC (stereo not given) | 35.5 µM [rising, single point] | 10 µM [falling, partial curve, poor fit]
51 | CCOc1ccc(NC(=O)CSc2nnc(C)n2CC2CCCO2)cc1 (stereo not given) | 20.6 µM [falling, single point] | –
52 | Cc1c(C(=O)NCCc2ccccc2)oc2ccccc12 | 12.6 µM [falling, partial curve, poor fit] | –
53 | C=CCNc1nnc(Cl)c2ccccc12 | 29.1 µM [rising, single point] | –
54 | CCCc1nc(SCC(=O)N2CCCC2)c2ccccc2n1 | 25.1 µM [falling, single point] | –
55 | C=CCOc1ccc(/C(CC)=N/O)cc1OC | 0.411 µM [rising, partial curve, poor fit] | –
56 | CCOc1cc(C2C3=C(CCCC3=O)NC3=C2C(=O)CCC3)ccc1OCCO | 4.61 µM [rising, single point] | –
57 | O=c1cc(CSc2nc3ccccc3[nH]2)c2ccccc2[nH]1 | 13 µM [rising, partial curve, poor fit] | 23.1 µM [falling, partial curve, poor fit]
58 | Cc1ccc(C2(C)NC(=O)N(CC(=O)N3CCN(S(=O)(=O)c4cccc(F)c4)CC3)C2=O)cc1 (stereo not given) | 0.501 µM [rising, full curve, poor fit] | –
59 | CCCc1nnc2n1N=C(c1ccc(OC)c(OC)c1)CS2 | – | 9.2 µM [falling, partial curve]
60 | CCS(=O)(=O)c1ncc(Cl)c(C(=O)NCc2ccc(OC)cc2)n1 | 35.5 µM [falling, single point] | 5.62 µM [falling, single point]
